Earlier results as cited in patent US20150376703A1, “METHOD AND SYSTEM TO PREDICT RESPONSE TO PAIN TREATMENTS” (PATHWAY GENOMICS CORPORATION, priority 2013, published 2015).
At least one structure is not confirmed: it was looked up by name or label, or the drawing left a doubt.

Tested on: CETP (B1/B2)
Conditions: B1B1 patients

SMILES: CC[C@H](C)C(=O)O[C@H]1C[C@H](O)C=C2C=C[C@H](C)[C@H](CC[C@@H](O)C[C@@H](O)CC(=O)O)[C@H]21 [Pravastatin]
- Clinical Result: development of arteriosclerosis: Slower development of
